This is one part of the list.
B1: il2ra_site2_2erj_sap_25_mot_HHH_b2_04375_af2_000000283_0001_22_38_H_._HHH_b2_08019_0001_0001000023_0000001_0_0001 (protein)
chain: SSSSDAEEEVRELLEQAKEAFKNNDLHLVYELLVRAMHVASENNDDEALKLVAEVFEEIAKSSSS
B2: il2ra_site2_2erj_normal_mot_c2bf78bdce995293a161f7082e24b401_0001_af2_000000082_0001_17_32_H_._HHH_b1_04851_0001_0000100001_0000001_0 (protein)
chain: SSSSEVEKEAEELFEEIKEAKERGDLELLYKLANLILHLVAKYKDDHARRLLEEALELAHRSSSS
B3: il2ra_site2_2erj_normal_mot_6bd1339e93f6fdda22195c76da45ec5d_0001_000000136_0001_37_51_H_._HHH_b2_06260_0001_0000100003_0000001_0_af2pred_0001_1_af2pred_swapped (protein)
chain: SSSSSEDEERVEELLEQAEEAAKRDPEKALALLSEAAEIALESNNDELLKLVMEVFTKIARSSSS
B4: il2ra_site1_3nfp_normal_mot_HHH_b1_01159_af2_000000107_0001_1_20_H_._HHH_b2_08137_0001_0000200012_0000001_0_af2pred_0001_af2pred (protein)
chain: SSSSSEEKRRLEELLRRAHELFRRGNPEEAERVLEEAKELAEEAGNEAARRFVEVLLRIVRSSSS
B5: il2ra_site2_3nfp_sap_24_mot_66bb1f637706d7249e1dd387c51866da_0001_1_000000188_0001_1_12_H_._HHH_b2_08220_0001_0000200006_0000001_0_0001_af2pred_0001_af2pred (protein)
chain: SSSSSDEFEAEARFRFAEALAASLGDEETLERVRELLERYREEGDPEYLKEVIRLSRELRSSSSS
B6: il2ra_site2_2erj_normal_mot_HHH_b2_07015_000000077_0001_40_57_H_._HHH_b2_07938_af2_0001_0000100001_0000001_0 (protein)
chain: SSSSDVLEEAIRLVQELLKFLAEGDEEEAEKVLEEAERILEEAGNEAAVRIIREVFEQMSSSSSS
B7: il2ra_site2_2erj_sap_27_mot_HHH_eva_0077_000000062_0001_1_20_H_._ems_3hM_3632_0001_0000100009_0000001_0_0001 (protein)
chain: SSSLHETYELAVEALHEISRLLEEGNPEEAEKVLEEFLERLRELDDPNAAELLEDDFRATHSSSS
B8: il2ra_site1_1z92_normal_mot_30aa582283ecb64a35315be28fff3e94_0001_000000110_0001_35_49_H_._HHH_b1_02957_af2_0001_0000100017_0000001_0_af2pred_0001_af2pred_1 (protein)
chain: SSSSDSRERLAERLVEDLVRLAGLSEEQKEELEKVAEELVREGVDPHEIAKILEKLALELESSSS
B9: il2ra_site2_3nfp_sap_21_mot_HHH_b1_06006_000000068_0001_18_35_H_._c31511196a668cb7f26710e5913b1740_0001_1_af2_0001_0000200010_0000001_0_0001 (protein)
chain: SSSSNKAEEYVEAVLLIAERALEQGNPELAERSLRLAEQVAELHGNEELRERLEELLEKLSSSSS
B10: il2ra_site2_2erj_sap_24_mot_a018c15928f351c43b00908d5a7ba3e0_0001_000000190_0001_17_32_H_._64acf9c47b58a7ae4252630f76d6e6b2_0001_1_0001_0000300012_0000001_0_000 … (protein)
chain: SSSSDLEEEAERLVEELVREFGADERLELFLRLLAKKLARAGLSPEEIERALREAIELHRSSSSS
B11: il2ra_site1_3nfp_sap_16_mot_HHH_b1_02896_af2_000000287_0001_1_17_H_._HHH_b2_04362_0001_0000100002_0000001_0_0001 (protein)
chain: SEEEKKEEISELLGVPPEEVERAVENLARRYRFPPEEALIILLRAARRAEKNPSARFAVENLLKI
B12: il2ra_site2_2erj_sap_23_mot_HHH_b2_00138_000000178_0001_20_37_H_._HHH_b2_00033_0001_0000500016_0000001_0_0001 (protein)
chain: SSSSYEVLKRVMELLAEAMRAAWEGDPELVRELLEEAKELAEEHDNEDLERLIEEVEHNLRSSSS
B13: il2ra_site2_2erj_sap_24_mot_HHH_b1_03609_af2_000000077_0001_42_55_H_._HHH_b1_06534_0001_0000200004_0000001_0_0001 (protein)
chain: SSSSSEEEIRELIEQAKELLEEGNPEEALKILLRAFHLAYQLGDEELIILVSELAAEIARQSSSS
B14: il2ra_site1_3nfp_sap_13_mot_HHH_b1_00258_000000025_0001_42_56_H_._HHH_b2_02568_0001_0000100003_0000001_0_0001 (protein)
chain: SSSSDETRRRTQELMKRAREASRQGDDEEAEELIREAIEIAEEVNDEIAVKFLEDLLRLLRSSSS
B15: il2ra_site2_2erj_sap_19_mot_e1dd4851c59bc1cdde016f988f6856bd_0001_1_000000110_0001_52_65_H_._HHH_b1_04086_af2_0001_0000100008_0000001_1_0001 (protein)
chain: SSSSSSDEYEEEVEELLEEAKKIEDLHRVYELAVRALHIAAKNQDQELQREVAKVAEELSSSSSS
B16: il2ra_site1_3nfp_normal_mot_HHH_b1_08723_000000044_0001_1_15_H_._HHH_b2_03161_0001_0000300014_0000001_1 (protein)
chain: SSSSDRSERLEELFRELFEAAQRDDPELIEELARELLELARENNSKALERSAEWALEWVNSSSSS
B17: il2ra_site2_2erj_normal_mot_HHH_b2_07875_af2_000000009_0001_3_16_H_._eb5a5eebac1e5153f932cc6c3f4b2787_0001_af2_0001_0000400006_0000001_0_af2pred_0001_1_af2pred_ … (protein)
chain: SLLRRIARLLLELASLSPEATEVVLEISELLEEGDKEQIKRLLEELLELLGDPKVEELIELIERL
B18: il2ra_site2_3nfp_normal_mot_ems_p1-15H-GBL-16H-GBL-14H_0089_0001_0001_0001_af2_000000072_0001_19_33_H_._HHH_b1_04641_0001_0000300033_0000001_0 (protein)
chain: SSSSDEEEEEVERLLKRIEELIKNGNPEEARELLRRVTHLAYELRDFELFARVAELALLLASSSS

Molecular target: il2ra, P01589
Test: yeast display titration

Apparent Kd, inactive:
B1 no binding seen, B2 no binding seen, B3 no binding seen, B4 no binding seen, B5 no binding seen, B6 no binding seen, B7 no binding seen, B8 no binding seen, B9 no binding seen, B10 no binding seen, B11 no binding seen, B12 no binding seen, B13 no binding seen, B14 no binding seen, B15 no binding seen, B16 no binding seen, B17 no binding seen, B18 no binding seen
